Results are given in words; binding and its absence hold for the method and conditions named. In cells and extracts the contact can be indirect. For some of these results: A result given as binding can be weak or reduced; the word gives no strength. For some of these results: Where a sequence is shown, tags or fusion partners need not be part of it.
What was measured:
[1] = molecular target: EGFP-SDS22-KR7A (human) (UniProt Q15435); assay: co-IP; ectopically expressed SDS22-WT, SDS22-KR7A or a PP1–SDS22 fusion, pulldown (Supplementary Fig. 4h); tag and cells not given
[2] = molecular target: Strep-I3-DE4R (human) (UniProt O60927); assay: co-IP; Strep-traps of transiently expressed Strep-I3 variants with EGFP-SDS22 variants; immunoblot
[3] = molecular target: T1, EGFP-I3-(1–84) (human) (UniProt O60927); assay: co-IP; EGFP-trap (anti-EGFP nanobodies on agarose, 2 h, 4 °C) of transiently expressed EGFP fusions from HEK293T lysates (20 mM Tris pH 7.9, 0.3 M NaCl, 0.5% Triton X-100); endogenous partners by immunoblot
T1 sequence: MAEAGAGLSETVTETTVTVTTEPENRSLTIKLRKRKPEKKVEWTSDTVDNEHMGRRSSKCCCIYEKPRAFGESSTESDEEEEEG

By UniProt entry, the sequences of proteins in these tests, tags left out.
UniProt Q9NYF8: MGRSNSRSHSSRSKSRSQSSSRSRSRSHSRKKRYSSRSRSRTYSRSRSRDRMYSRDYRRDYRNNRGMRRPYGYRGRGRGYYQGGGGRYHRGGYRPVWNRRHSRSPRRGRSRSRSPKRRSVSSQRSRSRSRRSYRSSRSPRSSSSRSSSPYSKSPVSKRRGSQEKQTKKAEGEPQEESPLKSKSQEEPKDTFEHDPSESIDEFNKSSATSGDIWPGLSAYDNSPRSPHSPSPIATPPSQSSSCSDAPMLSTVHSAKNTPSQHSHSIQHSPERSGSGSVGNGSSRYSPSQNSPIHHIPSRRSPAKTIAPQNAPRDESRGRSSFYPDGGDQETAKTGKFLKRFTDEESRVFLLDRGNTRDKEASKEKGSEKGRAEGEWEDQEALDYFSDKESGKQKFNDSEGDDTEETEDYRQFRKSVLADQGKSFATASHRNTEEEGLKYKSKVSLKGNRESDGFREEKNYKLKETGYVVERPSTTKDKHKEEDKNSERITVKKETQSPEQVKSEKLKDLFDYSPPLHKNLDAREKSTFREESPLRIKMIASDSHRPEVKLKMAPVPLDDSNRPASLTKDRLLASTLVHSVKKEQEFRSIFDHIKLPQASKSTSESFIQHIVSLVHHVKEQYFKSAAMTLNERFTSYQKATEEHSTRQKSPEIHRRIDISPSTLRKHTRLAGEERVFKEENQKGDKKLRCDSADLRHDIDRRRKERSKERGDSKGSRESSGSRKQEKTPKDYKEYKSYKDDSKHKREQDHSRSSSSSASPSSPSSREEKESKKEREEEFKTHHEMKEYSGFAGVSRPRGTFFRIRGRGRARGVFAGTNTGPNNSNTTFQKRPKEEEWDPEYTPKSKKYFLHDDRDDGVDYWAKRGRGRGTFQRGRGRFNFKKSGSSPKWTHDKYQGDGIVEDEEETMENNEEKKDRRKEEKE

[4] = molecular target: T2, EGFP-SDS22-WT (human) (UniProt Q15435); assay: as above
T2 sequence: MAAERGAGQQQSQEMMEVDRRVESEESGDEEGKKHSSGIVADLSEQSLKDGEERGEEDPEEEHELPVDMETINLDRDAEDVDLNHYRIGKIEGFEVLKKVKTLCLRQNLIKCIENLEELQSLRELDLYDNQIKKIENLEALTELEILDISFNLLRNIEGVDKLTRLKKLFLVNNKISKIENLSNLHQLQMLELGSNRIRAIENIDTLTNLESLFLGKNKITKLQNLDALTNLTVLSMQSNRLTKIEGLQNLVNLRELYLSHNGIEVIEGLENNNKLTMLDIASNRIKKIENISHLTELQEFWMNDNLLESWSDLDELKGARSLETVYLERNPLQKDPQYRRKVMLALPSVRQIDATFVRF

[5] = molecular target: T3, EGFP-I3-WT (human) (UniProt O60927); assay: as above
T3 sequence: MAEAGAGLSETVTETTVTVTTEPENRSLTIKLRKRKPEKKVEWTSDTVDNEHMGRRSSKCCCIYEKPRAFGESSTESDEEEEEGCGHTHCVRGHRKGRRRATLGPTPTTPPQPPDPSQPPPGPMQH

[6] = molecular target: T4, EGFP-SDS22-W302* (human) (UniProt Q15435); assay: as above
T4 sequence: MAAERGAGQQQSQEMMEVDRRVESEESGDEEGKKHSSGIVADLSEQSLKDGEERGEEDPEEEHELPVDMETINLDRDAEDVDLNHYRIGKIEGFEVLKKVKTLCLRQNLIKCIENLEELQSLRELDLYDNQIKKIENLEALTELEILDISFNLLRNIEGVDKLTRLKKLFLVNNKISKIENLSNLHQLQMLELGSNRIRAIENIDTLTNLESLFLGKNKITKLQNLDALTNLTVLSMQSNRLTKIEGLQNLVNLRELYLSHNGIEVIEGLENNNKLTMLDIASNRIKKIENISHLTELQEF

[7] = molecular target: T5, EGFP-I3-(1–70) (human) (UniProt O60927); assay: as above
T5 sequence: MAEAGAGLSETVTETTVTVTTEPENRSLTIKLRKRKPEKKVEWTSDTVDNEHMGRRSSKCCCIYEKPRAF

With “BCLAF1 (endogenous, HEK293T) (from UniProt Q9NYF8 1-920)” the binding [1] was “no binding”.

With EGFP-SDS22-KR7E (from UniProt Q15435) the binding [2] was “binds”.

With “PP1 (endogenous, HEK293T) (human (endogenous in HEK293T)) (enzyme)” the binding [3] was “binds”, the binding [4] was “binds” and the binding [5] was “binds”. The binding [6] was “no binding” and the binding [7] was “binds”.

From paper PMC11199634
